Laboratory results published in paper PMC8110579.
These are yes or no findings as the source states them, for the method shown. In cells and extracts the contact can be indirect. Some binding calls cover weakened binding; strength is not graded here. For part of these data: Tags and fused reporters may be left off the sequences shown.

Sequences of proteins named here, by UniProt entry; tags and fusion partners are left off.
UniProt Q8TDG2: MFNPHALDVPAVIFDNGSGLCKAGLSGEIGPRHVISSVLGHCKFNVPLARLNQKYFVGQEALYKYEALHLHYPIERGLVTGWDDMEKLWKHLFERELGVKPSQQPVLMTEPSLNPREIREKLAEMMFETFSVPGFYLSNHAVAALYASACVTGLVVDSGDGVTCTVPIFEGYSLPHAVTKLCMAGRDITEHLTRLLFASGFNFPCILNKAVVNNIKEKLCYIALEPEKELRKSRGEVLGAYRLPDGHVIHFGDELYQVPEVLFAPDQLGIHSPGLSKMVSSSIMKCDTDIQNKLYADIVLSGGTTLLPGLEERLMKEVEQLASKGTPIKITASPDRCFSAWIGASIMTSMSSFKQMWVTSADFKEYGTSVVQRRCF
UniProt O95816: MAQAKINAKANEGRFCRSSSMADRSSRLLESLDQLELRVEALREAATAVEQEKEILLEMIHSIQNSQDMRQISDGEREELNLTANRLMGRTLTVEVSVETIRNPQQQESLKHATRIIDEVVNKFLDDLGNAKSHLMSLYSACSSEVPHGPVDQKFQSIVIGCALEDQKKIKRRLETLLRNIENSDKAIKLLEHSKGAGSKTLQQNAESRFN
UniProt P11142: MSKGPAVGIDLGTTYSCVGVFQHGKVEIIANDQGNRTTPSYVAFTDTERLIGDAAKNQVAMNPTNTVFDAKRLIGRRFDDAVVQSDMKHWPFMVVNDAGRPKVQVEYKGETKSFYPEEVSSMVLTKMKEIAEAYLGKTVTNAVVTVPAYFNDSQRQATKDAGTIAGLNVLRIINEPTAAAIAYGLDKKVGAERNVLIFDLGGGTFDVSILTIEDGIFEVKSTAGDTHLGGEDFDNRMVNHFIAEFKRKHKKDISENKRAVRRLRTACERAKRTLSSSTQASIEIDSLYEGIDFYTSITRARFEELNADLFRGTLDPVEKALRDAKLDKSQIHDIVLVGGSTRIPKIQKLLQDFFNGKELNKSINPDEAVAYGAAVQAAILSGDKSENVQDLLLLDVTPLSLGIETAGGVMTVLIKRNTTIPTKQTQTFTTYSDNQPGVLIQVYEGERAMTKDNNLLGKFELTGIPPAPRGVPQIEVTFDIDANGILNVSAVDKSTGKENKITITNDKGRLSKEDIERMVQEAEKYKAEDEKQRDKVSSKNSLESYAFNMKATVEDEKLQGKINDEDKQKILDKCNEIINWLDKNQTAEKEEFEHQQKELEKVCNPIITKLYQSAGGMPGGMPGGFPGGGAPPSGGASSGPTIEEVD
UniProt P50990: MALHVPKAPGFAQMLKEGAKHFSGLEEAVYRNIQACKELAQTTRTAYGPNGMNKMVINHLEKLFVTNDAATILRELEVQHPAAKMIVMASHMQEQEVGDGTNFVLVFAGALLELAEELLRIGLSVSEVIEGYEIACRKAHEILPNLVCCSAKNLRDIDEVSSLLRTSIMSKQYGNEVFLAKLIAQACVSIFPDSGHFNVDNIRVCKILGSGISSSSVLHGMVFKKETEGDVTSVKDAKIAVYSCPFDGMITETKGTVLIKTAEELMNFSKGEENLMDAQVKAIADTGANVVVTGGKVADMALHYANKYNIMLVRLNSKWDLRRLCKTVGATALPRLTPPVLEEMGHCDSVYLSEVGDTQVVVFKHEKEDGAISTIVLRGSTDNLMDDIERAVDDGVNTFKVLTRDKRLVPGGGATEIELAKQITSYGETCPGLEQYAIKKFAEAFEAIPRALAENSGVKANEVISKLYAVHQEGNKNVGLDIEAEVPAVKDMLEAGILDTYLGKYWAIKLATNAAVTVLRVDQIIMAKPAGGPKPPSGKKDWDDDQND

T1: EHD4 tagged with V5 (UniProt Q9H223)
T1 sequence: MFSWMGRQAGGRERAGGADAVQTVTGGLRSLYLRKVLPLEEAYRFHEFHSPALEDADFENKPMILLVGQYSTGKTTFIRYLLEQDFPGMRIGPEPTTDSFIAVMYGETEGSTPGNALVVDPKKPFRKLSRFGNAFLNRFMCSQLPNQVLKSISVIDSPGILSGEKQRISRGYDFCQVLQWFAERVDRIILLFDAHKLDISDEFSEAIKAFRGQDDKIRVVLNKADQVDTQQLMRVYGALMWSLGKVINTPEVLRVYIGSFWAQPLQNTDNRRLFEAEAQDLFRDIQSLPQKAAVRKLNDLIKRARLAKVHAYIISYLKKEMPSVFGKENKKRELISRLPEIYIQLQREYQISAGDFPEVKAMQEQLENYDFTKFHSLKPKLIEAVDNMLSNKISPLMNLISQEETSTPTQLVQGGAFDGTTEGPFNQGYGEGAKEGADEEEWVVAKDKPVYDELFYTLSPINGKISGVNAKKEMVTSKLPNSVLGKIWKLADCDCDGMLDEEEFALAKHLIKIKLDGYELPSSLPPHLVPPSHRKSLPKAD

B1: EH domain containing protein 4 (EHD4) (protein, UniProt Q9H223 1-541)
chain: T1 sequence
B2: Septin-2 (protein, UniProt Q15019 1-361)
chain: MSKQQPTQFINPETPGYVGFANLPNQVHRKSVKKGFEFTLMVVGESGLGKSTLINSLFLTDLYPERVIPGAAEKIERTVQIEASTVEIEERGVKLRLTVVDTPGYGDAINCRDCFKTIISYIDEQFERYLHDESGLNRRHIIDNRVHCCFYFISPFGHGLKPLDVAFMKAIHNKVNIVPVIAKADTLTLKERERLKKRILDEIEEHNIKIYHLPDAESDEDEDFKEQTRLLKASIPFSVVGSNQLIEAKGKKVRGRLYPWGVVEVENPEHNDFLKLRTMLITHMQDLQEVTQDLHYENFRSERLKRGGRKVENEDMNKDQILLEKEAELRRMQEMIARMQAQMQMQMQGGDGDGGALGHHV
B3: Septin-9 (protein, UniProt Q9UHD8 1-586)
chain: MKKSYSGGTRTSSGRLRRLGDSSGPALKRSFEVEEVETPNSTPPRRVQTPLLRATVASSTQKFQDLGVKNSEPSARHVDSLSQRSPKASLRRVELSGPKAAEPVSRRTELSIDISSKQVENAGAIGPSRFGLKRAEVLGHKTPEPAPRRTEITIVKPQESAHRRMEPPASKVPEVPTAPATDAAPKRVEIQMPKPAEAPTAPSPAQTLENSEPAPVSQLQSRLEPKPQPPVAEATPRSQEATEAAPSCVGDMADTPRDAGLKQAPASRNEKAPVDFGYVGIDSILEQMRRKAMKQGFEFNIMVVGQSGLGKSTLINTLFKSKISRKSVQPTSEERIPKTIEIKSITHDIEEKGVRMKLTVIDTPGFGDHINNENCWQPIMKFINDQYEKYLQEEVNINRKKRIPDTRVHCCLYFIPATGHSLRPLDIEFMKRLSKVVNIVPVIAKADTLTLEERVHFKQRITADLLSNGIDVYPQKEFDEDSEDRLVNEKFREMIPFAVVGSDHEYQVNGKRILGRKTKWGTIEVENTTHCEFAYLRDLLIRTHMQNIKDITSSIHFEAYRVKRLNEGSSAMANGMEEKEPEAPEM

Assays:
EHD4 tagged with V5 = target: T1, EHD4 tagged with V5; test: co-IP; hTERT-RPE1 cells transfected with EHD4-V5 or V5 vector control; immunoprecipitation with anti-V5 beads, immunoblot for ARP-T1
[1] = target: Actin-Related Protein-Testis1 (ARP-T1), wild type, tagged with DDK (human) (UniProt Q8TDG2); test: co-IP; ARP-T1-DDK from transduced HeLa (Fig. 3a) and hTERT-RPE1 (Fig. 3b) cells precipitated with anti-FLAG M2 affinity gel overnight at 4 °C and 1 h at RT, five washes with TBS; immunoblot with antisera to the co-precipitated proteins
[2] = target: ARP-T1 (untagged, detected with ARP-T1 antibody) (human (endogenous in hTERT-RPE1)) (UniProt Q8TDG2); test: proximity ligation; proximity ligation assays (Supplementary Fig. 1f, g); cells and antibodies not told in the text shown

Row | Molecule | binding (EHD4 tagged with V5) | binding [1] | binding [2]
1 | ARP-T1 (untagged, detected with ARP-T1 antibody) (from UniProt Q8TDG2 1-376) | binds | – | –
2 | BAG family molecular chaperone regulator 2 (BAG 2) (from UniProt O95816 1-211) | – | binds | –
3 | Heat shock cognate 71 kDa protein (from UniProt P11142 1-646) | – | binds | –
4 | T-complex protein 1 subunit theta (TCP1 theta) (from UniProt P50990 1-548) | – | binds | –
5 | B1 | – | binds | binds
6 | B2 | – | binds | binds
7 | B3 | – | binds | –
